Results published in patent US11666558B2, “Methods of treating intraocular pressure with activators of Tie-2” (EyePoint Pharmaceuticals, Inc., priority 2015, dated 2023).
Where “and” joins values, the source holds several entries; their conditions need not be identical. Equal entries are not always repeated. Structures can show the parent of a compound that is named as a salt. Further values from the same series stand in other lists.

Experiments:
[1] = Plasma concentrations and pharmacokinetic parameters after topical ocular, subcutaneous and intravitreal administration; assay type: in vivo, New Zealand White rabbits; conditions: topical ocular 1.2 mg/eye (~0.7 mg/kg/dose); 4.0 hr
Experimental: To measure the concentration of Compound 1 in plasma and ocular tissues following topical ocular, subcutaneous, and intravitreal administration, New Zealand White rabbits were administered Compound 1, and plasma and ocular samples were collected at pre-determined time points. Compound 1 formulations were prepared fresh on each day of dosing.
New Zealand White rabbits weighing 2.5 to 3.5 kg were used on this study. Rabbits were housed one per cage. Animals were not fasted and only healthy animals with no ocular illness were used. Two rabbits per group were sacrificed at each of four ocular tissue sampling time points for a total of eight rabbits per group. […]
Each blood sample was collected on Day 3 post dose at pre-determined time points from the rabbits via an ear vessel and placed into chilled polypropylene tubes containing sodium heparin as an anticoagulant. […]
An LC-MS/MS method was developed for the determination of Compound 1 in rabbit aqueous tissues (plasma, aqueous and vitreous humor) and solid ocular tissue samples. A pre-study standard curve was analyzed to determine the specificity, range, and lower limit of quantitation of the method. Plasma and tissue homogenate study samples were extracted and analyzed. […]
Pharmacokinetic parameters were calculated from the time course of the plasma concentration. […]

intraocular pressure = test: Intraocular pressure (pneumotonometer) after repeated topical and subcutaneous administration in normotensive rabbits; assay type: in vivo, New Zealand White rabbits
Experimental: To measure the tolerability and effect of Compound 1 (sodium salt) on intraocular pressure following repeated topical and subcutaneous administration, normotensive New Zealand White rabbits were treated with Compound 1 (sodium salt). Animals were acclimated 1 to 2 times per day to the intraocular pressure (IOP) measurement procedures prior to initiation of the study to determine baseline IOP levels. IOP acclimation was performed in the two weeks prior to study start for a total of 5 days. Animals with unacceptable IOP values were excluded from the study. Prior to taking all IOP measurements, 1 to 2 drops of a 0.5% proparacaine solution were applied to the eye as a topical anesthetic. OP measurements were performed with a pneumotonometer. Test and control formulations were administered to the animals once or twice daily topically into both eyes or subcutaneously starting on Day 1 according to TABLE 20 and TABLE 21 below. PM dosing, where applicable, was performed ˜8 hours after AM dosing. IOP measurements were performed twice (AM and PM) at baseline (prior to the start of dosing), twice (AM and PM) on Days 1 and 7, and once daily (AM) on Days 2-6 and Day 8. Prior to taking all IOP measurements, 1 to 2 drops of a 0.5% proparacaine solution were applied to the eye as a topical anesthetic. IOP measurements were performed with a pneumotonometer. AM IOP measurements were performed 2 hours after AM dosing; the only exceptions were Day 8 AM measurements, which were performed 24 hours after the final dose. PM IOP measurements were performed ˜5 hours (baseline and Day 1) or ˜4 hours (Day 7) after AM IOP measurements, prior to PM dosing, with at least 15 minutes elapsing between anesthetic application for PM IOP measurements and PM dosing. The final round of slit-lamp examinations was performed on Day 8.

plasma Conc., individual rabbit [1]: 13.0 ng/mL
Structure (SMILES): COC(=O)N[C@@H](Cc1ccccc1)C(=O)N[C@@H](Cc1ccc(NS(=O)(=O)O)cc1)c1csc(-c2cccs2)n1 [Compound 1 sodium salt]
Intraocular pressure (IOP), individual animal (intraocular pressure; Group 2, 0.45 mg/eye topical BID, Day 6, AM, OD): 27.0 and 23.7 and 24.5
Intraocular pressure (IOP), individual animal (intraocular pressure; Group 2, 0.45 mg/eye topical BID, Day 6, AM, OS): 24.7 (2×) and 25.0
Intraocular pressure (IOP), individual animal (intraocular pressure; Group 2, 0.45 mg/eye topical BID, Day 7, AM, OD): 24.2 and 23.5
Intraocular pressure (IOP), individual animal (intraocular pressure; Group 2, 0.45 mg/eye topical BID, Day 7, AM, OS): 23.3 and 22.7 and 26.0
Intraocular pressure (IOP), individual animal (intraocular pressure; Group 2, 0.45 mg/eye topical BID, Day 7, PM, OD): 24.8 and 25.2 and 26.0
Intraocular pressure (IOP), individual animal (intraocular pressure; Group 2, 0.45 mg/eye topical BID, Day 7, PM, OS): 25.3 and 28.0 and 24.7 and 26.0
Intraocular pressure (IOP), individual animal (intraocular pressure; Group 2, 0.45 mg/eye topical BID, Day 8, AM, OS): 23.0
Intraocular pressure (IOP), individual animal (intraocular pressure; Group 3, 1.2 mg/eye topical BID, Day 6, AM, OD): 24.3 and 23.3 and 22.3 and 24.2
Intraocular pressure (IOP), individual animal (intraocular pressure; Group 3, 1.2 mg/eye topical BID, Day 6, AM, OS): 25.3 and 24.5
Intraocular pressure (IOP), individual animal (intraocular pressure; Group 3, 1.2 mg/eye topical BID, Day 7, AM, OD): 22.7
Intraocular pressure (IOP), individual animal (intraocular pressure; Group 3, 1.2 mg/eye topical BID, Day 7, AM, OS): 22.0
Intraocular pressure (IOP), individual animal (intraocular pressure; Group 3, 1.2 mg/eye topical BID, Day 7, PM, OD): 23.5 and 24.3 and 22.0
Intraocular pressure (IOP), individual animal (intraocular pressure; Group 3, 1.2 mg/eye topical BID, Day 8, AM, OD): 25.2 and 24.5
Intraocular pressure (IOP), individual animal (intraocular pressure; Group 3, 1.2 mg/eye topical BID, Day 8, AM, OS): 23.7 and 23.0 and 24.3
Intraocular pressure (IOP), individual animal (intraocular pressure; Group 4, 1.2 mg/eye topical QD, Day 3, AM, OD): 19.0
Intraocular pressure (IOP), individual animal (intraocular pressure; Group 4, 1.2 mg/eye topical QD, Day 3, AM, OS): 20.3
Intraocular pressure (IOP), individual animal (intraocular pressure; Group 4, 1.2 mg/eye topical QD, Day 6, AM, OD): 23.2
Intraocular pressure (IOP), individual animal (intraocular pressure; Group 4, 1.2 mg/eye topical QD, Day 6, AM, OS): 24.5 and 23.5
Intraocular pressure (IOP), individual animal (intraocular pressure; Group 4, 1.2 mg/eye topical QD, Day 7, AM, OD): 23.0
Intraocular pressure (IOP), individual animal (intraocular pressure; Group 4, 1.2 mg/eye topical QD, Day 7, AM, OS): 23.7 and 20.0 and 25.2
Intraocular pressure (IOP), individual animal (intraocular pressure; Group 4, 1.2 mg/eye topical QD, Day 7, PM, OD): 24.5 and 26.0 and 22.7 and 25.0
Intraocular pressure (IOP), individual animal (intraocular pressure; Group 4, 1.2 mg/eye topical QD, Day 7, PM, OS): 24.3 and 26.0 (2×)
Intraocular pressure (IOP), individual animal (intraocular pressure; Group 4, 1.2 mg/eye topical QD, Day 8, AM, OD): 22.8
Intraocular pressure (IOP), individual animal (intraocular pressure; Group 4, 1.2 mg/eye topical QD, Day 8, AM, OS): 24.2
Intraocular pressure (IOP), individual animal (intraocular pressure; Group 5, 10 mg/kg subcutaneous BID, Day 1, AM, OD): 22.2 and 21.5 and 22.7
Intraocular pressure (IOP), individual animal (intraocular pressure; Group 5, 10 mg/kg subcutaneous BID, Day 1, AM, OS): 24.7
Intraocular pressure (IOP), individual animal (intraocular pressure; Group 5, 10 mg/kg subcutaneous BID, Day 1, PM, OD): 24.3 and 26.2 and 24.0
Intraocular pressure (IOP), individual animal (intraocular pressure; Group 5, 10 mg/kg subcutaneous BID, Day 1, PM, OS): 22.8 and 21.0
Intraocular pressure (IOP), individual animal (intraocular pressure; Group 5, 10 mg/kg subcutaneous BID, Day 2, AM, OD): 20.2 and 21.5 and 25.3 and 22.7
Intraocular pressure (IOP), individual animal (intraocular pressure; Group 5, 10 mg/kg subcutaneous BID, Day 2, AM, OS): 21.2 and 21.7 and 24.0 and 22.8
Intraocular pressure (IOP), individual animal (intraocular pressure; Group 5, 10 mg/kg subcutaneous BID, Day 3, AM, OD): 20.2 and 23.3
Intraocular pressure (IOP), individual animal (intraocular pressure; Group 5, 10 mg/kg subcutaneous BID, Day 3, AM, OS): 17.5 and 21.5 (2×) and 22.2 and 23.7
Intraocular pressure (IOP), individual animal (intraocular pressure; Group 5, 10 mg/kg subcutaneous BID, Day 4, AM, OD): 20.0 and 21.2 (2×) and 24.7 and 22.5
Intraocular pressure (IOP), individual animal (intraocular pressure; Group 5, 10 mg/kg subcutaneous BID, Day 4, AM, OS): 22.2 and 24.7 and 23.3
Intraocular pressure (IOP), individual animal (intraocular pressure; Group 5, 10 mg/kg subcutaneous BID, Day 5, AM, OD): 14.0 and 23.7 and 26.7
Intraocular pressure (IOP), individual animal (intraocular pressure; Group 5, 10 mg/kg subcutaneous BID, Day 5, AM, OS): 21.0 and 23.2 and 26.2
Intraocular pressure (IOP), individual animal (intraocular pressure; Group 5, 10 mg/kg subcutaneous BID, Day 6, AM, OD): 24.8 and 23.8 and 25.5
Intraocular pressure (IOP), individual animal (intraocular pressure; Group 5, 10 mg/kg subcutaneous BID, Day 6, AM, OS): 24.0 and 25.7
Intraocular pressure (IOP), individual animal (intraocular pressure; Group 5, 10 mg/kg subcutaneous BID, Day 7, AM, OD): 25.2
Intraocular pressure (IOP), individual animal (intraocular pressure; Group 5, 10 mg/kg subcutaneous BID, Day 7, AM, OS): 24.0
Intraocular pressure (IOP), individual animal (intraocular pressure; Group 5, 10 mg/kg subcutaneous BID, Day 7, PM, OD): 24.5 and 25.5 (2×) and 22.3
Intraocular pressure (IOP), individual animal (intraocular pressure; Group 5, 10 mg/kg subcutaneous BID, Day 7, PM, OS): 24.3
Intraocular pressure (IOP), individual animal (intraocular pressure; Group 5, 10 mg/kg subcutaneous BID, Day 8, AM, OD): 24.0 and 26.0
Intraocular pressure (IOP), individual animal (intraocular pressure; Group 5, 10 mg/kg subcutaneous BID, Day 8, AM, OS): 22.0 and 24.8 and 25.5
